Read-outs that look alike come from different tables or passages of the source. About 60 (2%) of roughly 3,300 compounds showed an effect of 50% or more. This is one part of the list.
Test system: HCoV-OC43
Design: species or system RD; HTS, protection from HCoV-OC43 induced cell death, luminescent cell viability (CellCounting-Lite 2.0), inhibition rate
Settings: 24 h post infection, 1 h compound pre-incubation, 10 µM, inhibitor

SMILES | OC43 Inhibition rate | OC43 Inhibition rate (OC43 Inhibition rate, 24 h)
OC[C@H]1O[C@@H](n2cnc3c(O)nc(O)nc32)[C@H](O)[C@@H]1O [Xanthosine] | 2.4% | 
COc1cc2c(c(OC)c1OC)C(=O)c1c(cc(C)c(O)c1OC)C2=O [Chrysoobtusin] | 0.7% | 
CCCCCCCCCCCCCCCCCCC(=O)O [Nonadecanoic acid] | -0.5% | 
Nc1nc2c(ncn2[C@@H]2O[C@H](COP(=O)(O)OP(=O)(O)OC3O[C@H](CO)[C@@H](O)[C@H](O)[C@@H]3O)[C@@H](O)[C@H]2O)c(=O)[nH]1 (stereo partly drawn) [GDP-D-mannose (disodium)] | 0.3% | 
N#C/C=C1/C=C[C@@H](O)[C@H](O)[C@H]1O[C@@H]1O[C@H](CO)[C@@H](O)[C@H](O)[C@H]1O [Lithospermoside] | -4.6% | 
COc1c(O[C@@H]2O[C@H](CO)[C@@H](O)[C@H](O)[C@H]2O)cc2oc(-c3ccc(O)cc3)cc(=O)c2c1O [Homoplantaginin] | 0.5% | 
CC1(C)CC[C@]2(C(=O)O)CC[C@]3(C)C(=CC[C@@H]4[C@@]5(C)C[C@@H](O)[C@H](O)C(C)(C)[C@@H]5CC[C@]43C)[C@@H]2C1 [Maslinic acid] | -2.3% | 
C[C@@H]1O[C@@H](OC[C@H]2O[C@@H](Oc3c(-c4ccc(O)c(O)c4)oc4cc(O)cc(O)c4c3=O)[C@H](O)[C@@H](O)[C@@H]2O)[C@H](O)[C@H](O)[C@H]1O [Rutin] |  | -0.7%
COc1cc([C@@H]2c3cc4c(cc3[C@@H](O[C@@H]3O[C@@H]5CO[C@@H](C)O[C@H]5[C@H](O)[C@H]3O)[C@H]3COC(=O)[C@H]23)OCO4)cc(OC)c1O [Etoposide] | -10.6% | 
C[C@@]12C[C@H](c3ccoc3)O[C@@]13C[C@H](OC3=O)[C@H]1[C@H]2C[C@@H]2C[C@H]1C(=O)O2 [Diosbulbin B] | -0.9% | 
Oc1cc(O)c2c(c1)O[C@@H](c1ccc(O)c(O)c1)[C@H](O)C2 [(-)-Catechin] | 2.1% | 
C=C[C@H]1[C@H](O[C@@H]2O[C@H](CO)[C@@H](O)[C@H](O)[C@H]2O)OC=C(C(=O)OC)[C@H]1CC(=O)O [Secoxyloganin] | 0.3% | 
COc1cc(O)c2c(=O)cc(-c3ccc(OC)c(OC)c3)oc2c1 [7,3',4'-Tri-O-methylluteolin] | 0% | 
C/C(=C/C(=O)O)C(=O)O [Citraconic acid] | -1.1% | 
C=C(C)[C@H](CC=C(C)C)Cc1c(O)cc(OC)c2c1O[C@H](c1ccc(O)cc1O)[C@@H](O)C2=O [Kushenol I] | 41.5% | 
CC[C@@]1(O)C(=O)OCc2c1cc1n(c2=O)Cc2cc3c(N)cccc3nc2-1 [9-amino-CPT] | -9.5% | 
COC1=C(OC)C(=O)C(C/C=C(\C)CC/C=C(\C)CC/C=C(\C)CC/C=C(\C)CC/C=C(\C)CC/C=C(\C)CC/C=C(\C)CC/C=C(\C)CCC=C(C)C)=C(C)C1=O [Coenzyme Q9] | 0.1% | 
O=C(O)/C=C/c1ccc(O)cc1 [p-Coumaric acid] | -0.2% | 
NCC(=O)NCC(=O)O [Glycylglycine] | 1.4% | 
C/C=C/c1ccc(OC)cc1 [Anethole] |  | 0.3%

A second format for part of the listing above:

| SMILES | OC43 Inhibition rate | OC43 Inhibition rate (OC43 Inhibition rate, 24 h) |
| --- | --- | --- |
| O=C(O)/C=C/c1ccc(O)cc1 [p-Coumaric acid] | -0.2% |  |
| NCC(=O)NCC(=O)O [Glycylglycine] | 1.4% |  |

Next part

SMILES | OC43 Inhibition rate | OC43 Inhibition rate (OC43 Inhibition rate, 24 h)
O=c1cc(-c2ccc(O)cc2)oc2c([C@@H]3O[C@H](CO)[C@@H](O)[C@H](O)[C@H]3O)c(O)c([C@@H]3OC[C@H](O)[C@H](O)[C@H]3O)c(O)c12 [Isoschaftoside] | 7.2% | 
N[C@@H](Cc1ccccc1)C(=O)O [L-Phenylalanine] | -3.1% | 
CC(=O)O[C@]1(C(C)=O)CC[C@H]2[C@@H]3C[C@H](C)C4=CC(=O)CC[C@]4(C)[C@H]3CC[C@@]21C [Medroxyprogesterone acetate] | -0.2% | 
COc1c2c(cc3oc(CO[C@@H]4O[C@H](CO)[C@@H](O)[C@H](O)[C@H]4O)cc(=O)c13)O[C@H](C(C)(C)O)C2 [Prim-O-glucosylcimifugin] | -0.2% | 
O=C1CCC[C@@H]2[C@H]3CCCN4CCC[C@H](CN12)[C@@H]34 [Sophoridine] | 0.9% | 
Cc1cnc(C)cn1 [2,5-Dimethylpyrazine] | -0.8% | 
O=P(O)(O)OC[C@H](O)CO [sn-Glycerol 3-phosphate] | -3.2% | 
O=C(OC1O[C@@H]2COC(=O)c3cc(O)c(O)c(O)c3-c3c(cc(O)c(O)c3O)C(=O)O[C@H]2[C@H](OC(=O)c2cc(O)c(O)c(O)c2)[C@H]1OC(=O)c1cc(O)c(O)c(O)c1)c1cc(O)c(O)c(O)c1 (stereo partly shown) [Tellimagrandin II] | 8.8% | 
COc1cc(O)c(CC=C(C)C)c2c1C(=O)C[C@@H](c1ccc(O)cc1)O2 [(2S)-Isoxanthohumol] | 48.2% | 
Cc1ccccc1C=O [2-Methylbenzaldehyde] | -0.2% | 
c1ccc2c(c1)CCO2 [Coumaran] | -0.6% | 
CC(=O)c1ccc(C)cc1O [2'-Hydroxy-4'-methylacetophenone] | 0.3% | 
Cc1cnc(C)c(C)n1 [2,3,5-Trimethylpyrazine] | 1% | 
C[C@H](CC(=O)C[C@](C)(O)[C@@H]1CC(=O)[C@@]2(C)C3=C(C(=O)C[C@]12C)[C@@]1(C)CC[C@H](O)C(C)(C)[C@@H]1C[C@@H]3O)C(=O)O [Ganoderic acid I] | -0.5% | 
C[C@H](CCC(=O)NCCS(=O)(=O)O)[C@H]1CC[C@H]2[C@@H]3[C@H](O)C[C@@H]4C[C@H](O)CC[C@]4(C)[C@H]3CC[C@]12C [Taurochenodeoxycholic acid] |  | -3.9%
Oc1ccc(C2COc3cc(O)ccc3C2)cc1 (racemic) [(±)-Equol] | 3.5% | 
Cc1ccc(C(C)C)cc1O [Carvacrol] | 1.2% | 
Oc1ccc2ccc3cccc4ccc1c2c34 [1-Hydroxypyrene] | 16.8% | 
CC(C)(O)[C@@H](O)COc1c2ccoc2cc2oc(=O)ccc12 [(-)-Oxypeucedanin hydrate] | 2% | 
CC(C)=CCC[C@@H](C)CCO [(R)-Citronellol] | -0.5% | 
